Assay results from patent US4755591 (dated 1988).

Key:
[1] = Fmoc solid-phase peptide synthesis; Wang resin; dicyclohexylcarbodiimide/HOObt with N-ethylmorpholine (segment couplings in solu); conditions: whole synthesis, scale 100 mg peptide-resin sample cleaved, perchlorate
peptide synthesis = conditions: perchlorate

Asn-Ser-Phe-Arg-Tyr
crude mass [1]: 23.8 mg

Boc-His-Ser(Bu^t)-Asp(OBu^t)-Gly-Thr(Bu^t)-Phe-secretin(7-27) protected perchlorate
step yield (peptide synthesis; coupling step, corrected for peptide content about 80%): 83% yield

H-Arg(HClO4)-Leu-Gln-Arg(HClO4)-Leu-Leu-Gln-Gly-Leu-Val-NH2.HClO4
step yield (peptide synthesis; late stage modification step, overall): 72%

H-Arg(HClO4)-Leu-Leu-Gln-Gly-Leu-Val-NH2 HClO4
step yield (peptide synthesis; late stage modification step): 92%

H-Thr(Bu^t)-Ser(Bu^t)-Glu(OBu^t)-Leu-Ser(Bu^t)-Arg(HClO4)-Leu -Arg(HClO4)-Asp(OBu^t)-Ser(Bu^t)-Ala-Arg(HClO4)-Leu-Gln -Arg(HClO4)-Leu-Leu-Gln-Gly-Leu-Val-NH2. HClO4
step yield (peptide synthesis; late stage modification step): 97%

Z-Arg(Z2)-Asp(OBu^t)-Ser(Bu^t)-Ala-Arg(HClO4)-Leu-Gln-Arg(HClO4)-Leu-Leu-Gln-Gly-Leu-Val-NH2
step yield (peptide synthesis; coupling step): 99%

Z-Arg(Z2)-Leu-Gln-Arg(HClO4)-Leu-Leu-Gln-Gly-Leu-Val-NH2
step yield (peptide synthesis; coupling step): 92%
